The target of assay [1] is FLAG-tagged SOX2 lacking the HMG DNA binding domain (F-SOX2-ΔHMG) (UniProt P48432). Kind of assay: co-IP; HEK cells co-transfected with tagged constructs, harvested 24 h later; total cell extract in 20 mM Tris pH8, 137 mM NaCl, 10 mM EDTA, 1% NP40, 10% glycerol; antibodies against myc or FLAG 2 h at 4°C, protein G beads; Western blot.
For assay [2], the target named is FLAG-tagged SOX2 lacking the transactivation domain (F-SOX2-ΔTAD). Described as above.

By UniProt entry, the sequences of proteins in these tests, tags left out. Where a name states a change or a piece, a line headed by the entry shows the natural chain unless it says otherwise.
UniProt P48432: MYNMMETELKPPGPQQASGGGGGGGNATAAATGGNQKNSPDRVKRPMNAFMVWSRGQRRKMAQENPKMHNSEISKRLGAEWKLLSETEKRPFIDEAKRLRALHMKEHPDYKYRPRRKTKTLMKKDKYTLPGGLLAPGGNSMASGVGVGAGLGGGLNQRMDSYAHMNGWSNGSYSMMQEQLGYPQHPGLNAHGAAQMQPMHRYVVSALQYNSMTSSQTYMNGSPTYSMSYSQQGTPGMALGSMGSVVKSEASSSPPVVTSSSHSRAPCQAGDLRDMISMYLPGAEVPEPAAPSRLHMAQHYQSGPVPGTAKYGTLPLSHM

Results are given in words; binding and its absence hold for the method and conditions named. In cells and extracts the contact can be indirect. For some of these results: A result given as binding can be weak or reduced; the word gives no strength.

B1: CUX1 879-1336 (domain or fragment, UniProt P39880 879-1336)
chain: WKEWPSAESPYSQSSELSLTGASRSETPQNSPLPSSPIVPMSKPTKPSVPPLTPEQYEVYMYQEVDTIELTRQVKEKLAKNGICQRIFGEKVLGLSQGSVSDMLSRPKPWSKLTQKGREPFIRMQLWLNGELGQGVLPVQGQQQGPVLHSVTSLQDPLQQGCVSSESTPKTSASCSPAPESPMSSSESVKSLTELVQQPCPPIEASKDSKPPEPSDPPASDSQPTTPLPLSGHSALSIQELVAMSPELDTYGITKRVKEVLTDNNLGQRLFGETILGLTQGSVSDLLARPKPWHKLSLKGREPFVRMQLWLNDPNNVEKLMDMKRMEKKAYMKRRHSSVSDSQPCEPPSVGTEYSQGASPQPQHQLKKPRVVLAPEEKEALKRAYQQKPYPSPKTIEDLATQLNLKTSTVINWFHNYRSRIRRELFIEEIQAGSQGQAGASDSPSARSGRAAPSSEGD
As for B1, the binding entry in assay [1] was “no binding”; in assay [2], “binds”.

B2: CUX1 659-1505 (domain or fragment, UniProt P39880 659-1505)
chain: RIRASETGSDEAIKSILEQAKRELQVQKTAEPAQPSSASGSGNSDDAIRSILQQARREMEAQQAALDPALKQAPLSQSDITILTPKLLSTSPMPTVSSYPPLAISLKKPSAAPEAGASALPNPPALKKEAQDAPGLDPQGAADCAQGVLRQVKNEVGRSGAWKDHWWSAVQPERRNAASSEEAKAEETGGGKEKGSGGSGGGSQPRAERSQLQGPSSSEYWKEWPSAESPYSQSSELSLTGASRSETPQNSPLPSSPIVPMSKPTKPSVPPLTPEQYEVYMYQEVDTIELTRQVKEKLAKNGICQRIFGEKVLGLSQGSVSDMLSRPKPWSKLTQKGREPFIRMQLWLNGELGQGVLPVQGQQQGPVLHSVTSLQDPLQQGCVSSESTPKTSASCSPAPESPMSSSESVKSLTELVQQPCPPIEASKDSKPPEPSDPPASDSQPTTPLPLSGHSALSIQELVAMSPELDTYGITKRVKEVLTDNNLGQRLFGETILGLTQGSVSDLLARPKPWHKLSLKGREPFVRMQLWLNDPNNVEKLMDMKRMEKKAYMKRRHSSVSDSQPCEPPSVGTEYSQGASPQPQHQLKKPRVVLAPEEKEALKRAYQQKPYPSPKTIEDLATQLNLKTSTVINWFHNYRSRIRRELFIEEIQAGSQGQAGASDSPSARSGRAAPSSEGDSCDGVEATEGPGSADTEEPKSQGEAEREEVPRPAEQTEPPPSGTPGPDDARDDDHEGGPVEGPGPLPSPASATATAAPAAPEDAATSAAAAPGEGPAAPSSAPPPSNSSSSSAPRRPSSLQSLFGLPEAAGARDSRDNPLRKKKAANLNSIIHRLEKAASREEPIEWEF
In the case of B2, the binding entry was “no binding” in assay [1] and “binds” in assay [2].
